## Results of single-concentration screens

Sequences of proteins named here, by UniProt entry; tags and fusion partners are left off. Residues count along the entry.
UniProt P9WNZ1, whole entry: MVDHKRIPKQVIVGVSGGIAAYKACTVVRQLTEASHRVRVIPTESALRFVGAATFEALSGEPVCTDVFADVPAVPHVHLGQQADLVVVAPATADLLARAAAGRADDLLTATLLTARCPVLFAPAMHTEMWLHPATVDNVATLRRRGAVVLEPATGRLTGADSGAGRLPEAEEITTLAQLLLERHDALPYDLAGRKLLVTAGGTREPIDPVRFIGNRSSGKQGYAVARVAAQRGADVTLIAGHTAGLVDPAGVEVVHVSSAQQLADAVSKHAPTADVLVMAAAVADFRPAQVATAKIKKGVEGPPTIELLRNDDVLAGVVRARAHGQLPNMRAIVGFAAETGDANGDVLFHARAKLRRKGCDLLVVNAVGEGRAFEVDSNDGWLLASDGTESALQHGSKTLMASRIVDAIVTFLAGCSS
UniProt I6X8D2, whole entry: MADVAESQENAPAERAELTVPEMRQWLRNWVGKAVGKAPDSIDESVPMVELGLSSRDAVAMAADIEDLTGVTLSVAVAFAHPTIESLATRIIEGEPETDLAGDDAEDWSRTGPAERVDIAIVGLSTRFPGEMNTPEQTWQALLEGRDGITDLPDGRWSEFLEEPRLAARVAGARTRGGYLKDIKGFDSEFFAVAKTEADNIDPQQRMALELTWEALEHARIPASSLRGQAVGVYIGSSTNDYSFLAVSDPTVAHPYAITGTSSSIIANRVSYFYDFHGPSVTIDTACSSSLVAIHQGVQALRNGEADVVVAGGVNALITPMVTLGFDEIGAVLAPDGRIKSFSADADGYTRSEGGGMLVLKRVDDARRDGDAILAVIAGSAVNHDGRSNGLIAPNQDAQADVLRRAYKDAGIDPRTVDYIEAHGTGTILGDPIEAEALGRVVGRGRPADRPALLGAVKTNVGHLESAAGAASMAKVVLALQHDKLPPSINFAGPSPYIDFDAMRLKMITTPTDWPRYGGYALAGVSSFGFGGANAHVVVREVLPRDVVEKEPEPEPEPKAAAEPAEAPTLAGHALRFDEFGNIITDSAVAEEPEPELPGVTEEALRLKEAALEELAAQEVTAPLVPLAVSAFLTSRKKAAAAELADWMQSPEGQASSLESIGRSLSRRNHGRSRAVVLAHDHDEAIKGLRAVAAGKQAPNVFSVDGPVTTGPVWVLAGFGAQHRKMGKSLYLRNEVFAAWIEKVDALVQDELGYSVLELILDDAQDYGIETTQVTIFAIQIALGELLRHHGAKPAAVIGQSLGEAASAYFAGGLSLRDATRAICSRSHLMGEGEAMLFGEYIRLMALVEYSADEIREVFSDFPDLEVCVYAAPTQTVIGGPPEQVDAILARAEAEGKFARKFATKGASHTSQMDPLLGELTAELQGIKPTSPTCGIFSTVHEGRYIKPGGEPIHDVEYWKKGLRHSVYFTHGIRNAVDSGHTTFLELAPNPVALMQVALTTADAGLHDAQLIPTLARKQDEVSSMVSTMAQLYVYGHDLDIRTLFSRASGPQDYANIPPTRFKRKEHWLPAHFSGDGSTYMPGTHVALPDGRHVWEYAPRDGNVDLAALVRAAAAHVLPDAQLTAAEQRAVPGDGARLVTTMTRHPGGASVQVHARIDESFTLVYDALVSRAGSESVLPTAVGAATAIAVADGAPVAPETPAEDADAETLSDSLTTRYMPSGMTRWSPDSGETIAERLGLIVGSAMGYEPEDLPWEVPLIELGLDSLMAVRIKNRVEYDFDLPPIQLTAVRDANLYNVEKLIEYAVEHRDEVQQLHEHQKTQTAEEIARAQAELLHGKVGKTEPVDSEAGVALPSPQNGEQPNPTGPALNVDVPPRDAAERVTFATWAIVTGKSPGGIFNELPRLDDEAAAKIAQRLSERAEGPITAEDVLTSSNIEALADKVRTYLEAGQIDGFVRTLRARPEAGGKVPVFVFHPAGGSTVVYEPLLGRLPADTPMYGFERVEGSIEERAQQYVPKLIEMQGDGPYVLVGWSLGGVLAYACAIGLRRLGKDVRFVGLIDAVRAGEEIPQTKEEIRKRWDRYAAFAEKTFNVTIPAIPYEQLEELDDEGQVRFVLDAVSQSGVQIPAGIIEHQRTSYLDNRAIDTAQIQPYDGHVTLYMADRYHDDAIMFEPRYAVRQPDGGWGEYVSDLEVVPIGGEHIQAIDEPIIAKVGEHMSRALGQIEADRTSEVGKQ
UniProt P9WPC5, whole entry: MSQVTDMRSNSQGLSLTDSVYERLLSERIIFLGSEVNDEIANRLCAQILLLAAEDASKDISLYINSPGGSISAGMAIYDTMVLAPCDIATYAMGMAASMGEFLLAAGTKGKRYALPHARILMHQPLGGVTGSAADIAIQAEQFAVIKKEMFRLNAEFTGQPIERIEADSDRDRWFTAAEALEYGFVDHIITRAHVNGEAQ
UniProt P9WPC3, whole entry partner: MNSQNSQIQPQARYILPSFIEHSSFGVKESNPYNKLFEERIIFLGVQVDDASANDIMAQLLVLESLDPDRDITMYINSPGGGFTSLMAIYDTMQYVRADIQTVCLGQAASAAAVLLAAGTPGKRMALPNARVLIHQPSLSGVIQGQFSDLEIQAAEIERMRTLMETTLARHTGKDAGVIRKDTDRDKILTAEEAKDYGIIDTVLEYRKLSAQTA
UniProt Q4DA54, 1-478: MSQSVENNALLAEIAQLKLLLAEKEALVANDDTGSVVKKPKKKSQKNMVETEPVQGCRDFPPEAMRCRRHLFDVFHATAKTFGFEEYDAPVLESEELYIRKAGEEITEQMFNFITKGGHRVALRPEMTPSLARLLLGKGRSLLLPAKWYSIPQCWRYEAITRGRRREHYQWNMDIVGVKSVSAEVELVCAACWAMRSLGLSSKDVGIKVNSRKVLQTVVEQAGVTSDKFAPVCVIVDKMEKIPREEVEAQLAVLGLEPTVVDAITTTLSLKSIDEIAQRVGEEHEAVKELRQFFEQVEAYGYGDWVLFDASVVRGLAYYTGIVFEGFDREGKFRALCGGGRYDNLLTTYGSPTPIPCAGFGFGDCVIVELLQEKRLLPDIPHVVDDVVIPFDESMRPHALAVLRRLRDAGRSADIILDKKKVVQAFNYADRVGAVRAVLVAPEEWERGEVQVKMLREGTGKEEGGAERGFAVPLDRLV

The filed quantity is “Percent Effect” (%). The controls that fix the scale are not given in the record; negative values are as filed. The compounds are a random part of those screened.

CoaBC: 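Enzyme assay of CoaBC with a phosphate dye (Biomol Green) read at 650 nm. Target: Coenzyme A biosynthesis protein CoaBC, Mycobacterium tuberculosis (UniProt P9WNZ1). Compounds at 30 µM. Direction is inferred from only a few compounds that gave an IC50; most scored high, so higher reads as stronger inhibition. Most strong results did not repeat in a second test. Of about 67,000 compounds tested this way, about 40 (0.06%) reached 50% or more in at least one test.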
Leishmania in macrophages: 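Cell assay of Leishmania donovani living inside macrophages; the read-out is not stated. Tested at 30 µM. The record gives no direction; compounds that gave an IC50 in retests scored well above the rest, so higher reads as stronger inhibition. About 69,000 compounds were tested under these conditions; 1.5% (about 1,000) showed 50% or more at least once.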
Pks13 thioesterase: 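Polyketide synthase Pks13, Mycobacterium tuberculosis (UniProt I6X8D2). Enzyme assay of the thioesterase domain of polyketide synthase 13; the read-out is not stated. Compounds at 30 µM. Higher reads as stronger inhibition (inferred from which compounds were picked for retests). Size under these conditions: about 67,000 compounds, about 300 of them at 50% or above in at least one test.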
ClpP1P2: 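ClpP1P2, Mycobacterium tuberculosis (UniProt P9WPC5 and UniProt P9WPC3). Protease assay of ClpP1P2, read by the AMC dye that it sets free. Compounds at 50 µM. Direction is inferred from only a few compounds that gave an IC50; most scored high, so higher reads as stronger inhibition. Most other retested compounds had strongly negative values. Of about 69,000 compounds tested this way, about 10 (0.015%) reached 50% or more in at least one test.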
TcHisRS: 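Enzyme assay of histidyl-tRNA synthetase; the read-out is not stated. Target: Histidine-tRNA ligase, Trypanosoma cruzi CL Brener (UniProt Q4DA54). Concentration: 30 µM. Higher reads as stronger inhibition (inferred: compounds with an IC50 in retests scored well above the rest). Of about 69,000 compounds tested this way, about 31 (0.045%) reached 50% or more in at least one test.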

Result for O=C(O)C(F)(F)F.[H][C@@]12CN(C(=O)c3cccnc3)C[C@]1([H])CN(c1cc(OC)ncn1)C2 was Leishmania in macrophages: 10.6%.
Result for O=C(CCc1c(F)cccc1F)NS(=O)(=O)c1ccc2c(c1)OCCO2 was CoaBC: 5.216%; Leishmania in macrophages: 14.4%; Pks13 thioesterase: -18.09%; ClpP1P2: -2.841%; TcHisRS: 2.817%.
Result for CCc1[nH]ncc1C(=O)N1CCCC(n2ccnc2C(C)C)C1 (centres undefined) was CoaBC: 7.953%; Leishmania in macrophages: 0.1369%; Pks13 thioesterase: -10.29%; ClpP1P2: -9.636%; TcHisRS: -7.17%.
Result for CN(C)c1ncnc2c1CCN(S(=O)(=O)c1cccc(Cl)c1Cl)C2 was CoaBC: 10.33%; Leishmania in macrophages: 18.34%; Pks13 thioesterase: -26.64%; ClpP1P2: -6.296%; TcHisRS: 7.216%.
Result for O=C(c1cc(-n2cnnn2)ccc1Cl)N1CCCCCC1 was CoaBC: 3.165%; Leishmania in macrophages: -36.07%; Pks13 thioesterase: 5.765%; ClpP1P2: -9.633%; TcHisRS: 3.727%.
Result for CC(C)NC(=O)CCNC(=O)CCc1cc(Br)cs1 was CoaBC: -0.3984%; Leishmania in macrophages: 12.89%; Pks13 thioesterase: -14.23%; ClpP1P2: -7.455%; TcHisRS: 5.263%.
Result for [H][C@@]12CC[C@H](Oc3cccc(F)c3)[C@]1([H])CN(C(=O)c1cnco1)C2 was Leishmania in macrophages: 16.8%.
Result for C[C@@H]1CN(Cc2cc3ccccc3n2C)CC[C@]1(C)O was CoaBC: 13.89%; Leishmania in macrophages: 19.22%; Pks13 thioesterase: -32.06%; ClpP1P2: 10.56%; TcHisRS: 0%.
Result for CC(C)n1ccnc1C1CCN(Cc2ccc(Cl)c(F)c2)CC1 was CoaBC: -4.545%; Leishmania in macrophages: 32.2%; Pks13 thioesterase: 2.72%; ClpP1P2: -1.607%; TcHisRS: 10.04%.
Result for c1cc2c(cc1Cn1cc(C3CCCNC3)nn1)CCCO2 (centres undefined) was CoaBC: 17.22%; Leishmania in macrophages: -3.612%; Pks13 thioesterase: -18.56%; ClpP1P2: -3.153%; TcHisRS: 4.103%.
Result for CC(C)C(O)CNC(=O)Nc1cnn(Cc2ccccc2)c1 (centres undefined) was CoaBC: 6.615%; Leishmania in macrophages: 8.232%; Pks13 thioesterase: -7.052%; ClpP1P2: -6.172%; TcHisRS: 8.333%.
Result for O[C@@H]1CN(CC2CC2)CC[C@H]1N1CCN(c2ccccc2F)CC1 was CoaBC: 2.561%; Leishmania in macrophages: 37.55%; Pks13 thioesterase: -4.289%; ClpP1P2: -11.42%; TcHisRS: 3.012%.
Result for Cc1noc(C)c1CC(=O)NCC1(O)CCCN(c2ccccn2)C1 (centres undefined) was CoaBC: -4.54%; Leishmania in macrophages: -23.1%; Pks13 thioesterase: 3.638%; ClpP1P2: -0.5572%; TcHisRS: 3.876%.
Result for [H][C@]12CC[C@]([H])(CN(c3nccc(OC)n3)C1)N(CC1CC1)C2 was Leishmania in macrophages: 37.63%.
Result for O=C(NCC1CCCO1)c1nc2c(s1)CCCN2CC1CC1 (centres undefined) was CoaBC: 1.603%; Leishmania in macrophages: 8.147%; Pks13 thioesterase: -0.675%; ClpP1P2: -17.48%; TcHisRS: 0%.
Result for COCCNC(=O)CN1CCN(c2nc(C)cs2)C(C)C1 (centres undefined) was CoaBC: 4.384%; Leishmania in macrophages: 18.25%; Pks13 thioesterase: -31.88%; ClpP1P2: 2.344%; TcHisRS: -2.682%.
Result for c1cc(-c2ccc3nc(C4CCN(CC5CC5)CC4)nn3c2)ccn1 was CoaBC: 3.576%; Pks13 thioesterase: 0.9717%; ClpP1P2: -5.955%; TcHisRS: 8.772%.
Result for CCc1nc(C2CCCN2C(=O)c2cc(Cl)c[nH]2)no1 (centres undefined) was CoaBC: 1.044%; Leishmania in macrophages: 40.23%; Pks13 thioesterase: -12.04%; ClpP1P2: -9.965%; TcHisRS: 2.26%.
Result for O=C(CN1CCCC1Cn1cncn1)NC(C1CC1)C1CC1 (centres undefined) was CoaBC: 0.4219%; Leishmania in macrophages: 5.083%; Pks13 thioesterase: -9.809%; ClpP1P2: 1.117%; TcHisRS: 1.626%.
Result for [H][C@]12CC[C@@]3(N=C(c4ccccc4)NC3=O)[C@@]1([H])CN(Cc1ccoc1)C2 was Leishmania in macrophages: 7.589%.
Result for CCCc1nnc(N2CCC(N3CCCC(O)C3)CC2)o1 (centres undefined) was CoaBC: 0.7299%; Leishmania in macrophages: 9.644%; Pks13 thioesterase: 3.31%; ClpP1P2: 3.881%; TcHisRS: 5.455%.
Result for CC(=O)NCCOc1c(C)cccc1C was CoaBC: 5.857%; Leishmania in macrophages: -1.3%; Pks13 thioesterase: -16.1%; ClpP1P2: -7.273%; TcHisRS: -3.191%.
Result for O=S(=O)(Nc1cn[nH]c1)c1ccc(F)c(Br)c1 was CoaBC: 1.21%; Leishmania in macrophages: 8.052%; Pks13 thioesterase: -4.153%; ClpP1P2: -4.706%; TcHisRS: 4.202%.
Result for COCCN1CCC2(CC1)CN(C(=O)c1cccs1)CCO2 was CoaBC: -2.445%; ClpP1P2: 22.17%; TcHisRS: -1.942%.

For reference, 2 entries once more:

structure,CoaBC,Leishmania in macrophages,Pks13 thioesterase,ClpP1P2,TcHisRS
CC(C)C(O)CNC(=O)Nc1cnn(Cc2ccccc2)c1 (centres undefined),6.615%,8.232%,-7.052%,-6.172%,8.333%
O[C@@H]1CN(CC2CC2)CC[C@H]1N1CCN(c2ccccc2F)CC1,2.561%,37.55%,-4.289%,-11.42%,3.012%

The values are deposited in ChEMBL (CHEMBL3988442, “University of Dundee, Small-Polar-MMV Screening Library” (2021)).